Laboratory results reported in the supplement of paper PMC10849652.
This is one part of the list.

The chains behind the UniProt entries cited, without tags or fusion partners. Where a name states a change or a piece, a line headed by the entry shows the natural chain unless it says otherwise.
UniProt Q9Y2S6, whole entry, looked up: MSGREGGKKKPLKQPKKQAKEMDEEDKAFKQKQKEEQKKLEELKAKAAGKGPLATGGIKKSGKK
UniProt Q9NX00: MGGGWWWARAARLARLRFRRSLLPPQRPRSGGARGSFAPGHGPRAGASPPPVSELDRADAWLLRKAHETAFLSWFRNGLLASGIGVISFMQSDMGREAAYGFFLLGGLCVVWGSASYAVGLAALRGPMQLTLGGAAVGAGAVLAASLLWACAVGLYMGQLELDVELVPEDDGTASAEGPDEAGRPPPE
UniProt Q6ZXV5: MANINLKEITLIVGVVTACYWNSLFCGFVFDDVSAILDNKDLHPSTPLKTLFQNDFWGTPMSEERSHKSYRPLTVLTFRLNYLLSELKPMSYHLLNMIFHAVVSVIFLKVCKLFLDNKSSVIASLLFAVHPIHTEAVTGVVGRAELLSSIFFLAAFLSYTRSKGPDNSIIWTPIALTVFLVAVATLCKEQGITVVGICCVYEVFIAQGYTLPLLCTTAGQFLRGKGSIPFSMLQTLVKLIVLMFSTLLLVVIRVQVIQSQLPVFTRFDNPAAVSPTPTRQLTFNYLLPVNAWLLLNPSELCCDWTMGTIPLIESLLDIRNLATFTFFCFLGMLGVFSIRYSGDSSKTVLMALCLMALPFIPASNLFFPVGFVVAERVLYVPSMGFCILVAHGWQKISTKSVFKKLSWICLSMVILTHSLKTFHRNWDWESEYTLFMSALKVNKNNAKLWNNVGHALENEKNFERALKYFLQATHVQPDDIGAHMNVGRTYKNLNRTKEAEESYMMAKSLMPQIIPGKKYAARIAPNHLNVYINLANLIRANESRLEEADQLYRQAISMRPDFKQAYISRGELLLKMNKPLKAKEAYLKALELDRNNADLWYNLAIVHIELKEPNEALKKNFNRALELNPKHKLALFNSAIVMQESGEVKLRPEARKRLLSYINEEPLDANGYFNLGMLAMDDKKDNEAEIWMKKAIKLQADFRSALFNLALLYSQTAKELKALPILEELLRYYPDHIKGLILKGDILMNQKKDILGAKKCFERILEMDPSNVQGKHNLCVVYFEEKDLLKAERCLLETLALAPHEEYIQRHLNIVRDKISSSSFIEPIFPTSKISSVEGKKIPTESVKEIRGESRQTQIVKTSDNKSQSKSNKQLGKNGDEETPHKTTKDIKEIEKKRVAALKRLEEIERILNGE
UniProt Q8IUX1: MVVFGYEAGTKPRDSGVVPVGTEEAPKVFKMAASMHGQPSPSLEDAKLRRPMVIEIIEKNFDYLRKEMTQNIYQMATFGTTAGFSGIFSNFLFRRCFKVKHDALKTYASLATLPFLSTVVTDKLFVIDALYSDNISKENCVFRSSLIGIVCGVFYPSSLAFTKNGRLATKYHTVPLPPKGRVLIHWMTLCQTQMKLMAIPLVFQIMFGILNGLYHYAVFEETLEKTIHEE
UniProt P42167: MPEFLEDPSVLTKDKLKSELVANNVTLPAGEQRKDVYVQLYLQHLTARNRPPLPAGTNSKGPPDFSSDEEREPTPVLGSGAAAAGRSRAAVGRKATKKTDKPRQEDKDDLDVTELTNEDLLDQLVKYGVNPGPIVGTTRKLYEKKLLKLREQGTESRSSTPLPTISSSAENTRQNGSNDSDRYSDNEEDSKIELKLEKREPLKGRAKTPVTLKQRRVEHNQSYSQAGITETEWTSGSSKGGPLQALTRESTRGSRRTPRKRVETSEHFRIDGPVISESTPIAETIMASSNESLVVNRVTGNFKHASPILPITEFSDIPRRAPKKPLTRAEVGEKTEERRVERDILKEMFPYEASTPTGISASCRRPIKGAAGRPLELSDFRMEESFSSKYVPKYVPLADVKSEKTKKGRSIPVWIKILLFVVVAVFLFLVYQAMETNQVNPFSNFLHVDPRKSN
UniProt Q9H3N1: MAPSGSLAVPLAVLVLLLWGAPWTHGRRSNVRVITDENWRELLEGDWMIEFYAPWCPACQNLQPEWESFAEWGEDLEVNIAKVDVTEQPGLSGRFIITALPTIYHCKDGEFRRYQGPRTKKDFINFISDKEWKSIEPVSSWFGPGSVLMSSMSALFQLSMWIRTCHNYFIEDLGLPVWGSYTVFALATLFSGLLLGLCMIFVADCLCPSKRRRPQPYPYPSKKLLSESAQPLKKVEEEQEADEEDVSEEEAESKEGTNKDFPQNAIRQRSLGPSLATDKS
UniProt Q8NBN3: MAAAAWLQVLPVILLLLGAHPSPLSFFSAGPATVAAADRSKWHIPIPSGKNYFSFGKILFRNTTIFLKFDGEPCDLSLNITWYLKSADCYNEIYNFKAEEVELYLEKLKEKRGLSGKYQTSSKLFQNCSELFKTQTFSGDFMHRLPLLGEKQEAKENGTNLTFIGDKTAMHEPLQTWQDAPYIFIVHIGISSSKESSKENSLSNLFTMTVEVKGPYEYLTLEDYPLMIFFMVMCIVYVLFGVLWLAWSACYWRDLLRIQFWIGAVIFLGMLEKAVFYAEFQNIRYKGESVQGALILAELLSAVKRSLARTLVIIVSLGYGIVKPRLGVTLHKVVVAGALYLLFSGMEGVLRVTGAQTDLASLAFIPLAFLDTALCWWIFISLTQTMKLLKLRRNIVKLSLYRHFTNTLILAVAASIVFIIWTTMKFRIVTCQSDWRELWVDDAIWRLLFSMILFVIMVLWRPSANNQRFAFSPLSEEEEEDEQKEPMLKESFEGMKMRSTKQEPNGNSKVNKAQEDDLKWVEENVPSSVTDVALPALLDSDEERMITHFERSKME
UniProt Q96SK2: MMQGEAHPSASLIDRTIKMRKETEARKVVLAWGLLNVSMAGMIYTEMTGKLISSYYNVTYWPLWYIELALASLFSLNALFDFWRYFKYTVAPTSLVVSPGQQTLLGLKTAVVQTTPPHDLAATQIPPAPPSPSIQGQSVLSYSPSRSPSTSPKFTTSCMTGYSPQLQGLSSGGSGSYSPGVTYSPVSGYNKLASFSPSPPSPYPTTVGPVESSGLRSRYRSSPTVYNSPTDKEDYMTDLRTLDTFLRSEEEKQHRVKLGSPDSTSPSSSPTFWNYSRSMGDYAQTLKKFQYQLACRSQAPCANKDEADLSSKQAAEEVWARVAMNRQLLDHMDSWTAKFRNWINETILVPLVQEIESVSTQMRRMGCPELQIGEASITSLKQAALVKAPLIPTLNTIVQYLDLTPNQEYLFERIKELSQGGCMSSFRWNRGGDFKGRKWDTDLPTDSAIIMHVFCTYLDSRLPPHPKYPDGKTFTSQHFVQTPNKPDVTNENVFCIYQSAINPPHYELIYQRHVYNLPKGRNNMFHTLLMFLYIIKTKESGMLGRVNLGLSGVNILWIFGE
UniProt Q6PI78: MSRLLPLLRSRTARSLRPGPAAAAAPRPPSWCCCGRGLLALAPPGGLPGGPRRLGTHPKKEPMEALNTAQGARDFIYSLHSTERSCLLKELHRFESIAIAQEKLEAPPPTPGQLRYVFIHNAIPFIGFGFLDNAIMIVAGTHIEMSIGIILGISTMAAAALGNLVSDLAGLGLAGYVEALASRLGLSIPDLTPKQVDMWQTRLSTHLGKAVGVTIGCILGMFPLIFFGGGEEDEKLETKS
UniProt P55061, whole entry, looked up: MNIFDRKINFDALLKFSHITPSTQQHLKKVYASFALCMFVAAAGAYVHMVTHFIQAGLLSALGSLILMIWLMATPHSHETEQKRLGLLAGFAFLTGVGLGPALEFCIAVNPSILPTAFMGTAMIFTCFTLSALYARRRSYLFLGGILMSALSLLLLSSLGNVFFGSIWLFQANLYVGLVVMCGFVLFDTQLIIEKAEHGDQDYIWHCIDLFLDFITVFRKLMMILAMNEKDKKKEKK
UniProt Q96A57: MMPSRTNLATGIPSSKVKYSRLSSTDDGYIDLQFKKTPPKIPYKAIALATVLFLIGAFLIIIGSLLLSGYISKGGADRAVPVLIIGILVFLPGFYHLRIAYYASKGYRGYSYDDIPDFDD
UniProt Q5U3C3: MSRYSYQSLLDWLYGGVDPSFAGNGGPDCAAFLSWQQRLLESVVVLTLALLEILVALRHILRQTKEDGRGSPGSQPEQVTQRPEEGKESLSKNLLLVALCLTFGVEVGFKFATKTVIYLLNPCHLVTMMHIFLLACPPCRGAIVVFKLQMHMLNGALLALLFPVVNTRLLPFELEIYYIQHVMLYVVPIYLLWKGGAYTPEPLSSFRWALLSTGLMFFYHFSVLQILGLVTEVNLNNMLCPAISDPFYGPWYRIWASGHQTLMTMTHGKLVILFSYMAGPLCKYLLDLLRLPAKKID
UniProt Q0VDI3: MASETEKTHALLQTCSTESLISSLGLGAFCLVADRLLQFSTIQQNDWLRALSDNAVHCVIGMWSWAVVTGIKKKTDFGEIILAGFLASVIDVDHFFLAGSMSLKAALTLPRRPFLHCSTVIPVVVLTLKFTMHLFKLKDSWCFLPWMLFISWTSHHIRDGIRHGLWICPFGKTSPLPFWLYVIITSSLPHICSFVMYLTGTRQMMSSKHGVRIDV
UniProt Q8NDZ6: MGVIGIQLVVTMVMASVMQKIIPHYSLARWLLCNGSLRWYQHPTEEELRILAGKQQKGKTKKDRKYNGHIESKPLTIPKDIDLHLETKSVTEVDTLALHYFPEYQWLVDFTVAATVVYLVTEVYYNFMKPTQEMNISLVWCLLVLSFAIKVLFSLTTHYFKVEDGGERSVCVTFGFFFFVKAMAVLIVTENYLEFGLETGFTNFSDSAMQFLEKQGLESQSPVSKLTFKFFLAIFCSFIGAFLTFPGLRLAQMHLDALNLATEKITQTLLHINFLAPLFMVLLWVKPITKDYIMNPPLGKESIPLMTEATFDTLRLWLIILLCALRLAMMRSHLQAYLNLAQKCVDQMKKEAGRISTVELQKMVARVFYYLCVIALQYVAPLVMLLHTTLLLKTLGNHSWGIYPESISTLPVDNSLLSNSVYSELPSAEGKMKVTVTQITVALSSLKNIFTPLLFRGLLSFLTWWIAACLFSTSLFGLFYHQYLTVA
UniProt Q9NVH6: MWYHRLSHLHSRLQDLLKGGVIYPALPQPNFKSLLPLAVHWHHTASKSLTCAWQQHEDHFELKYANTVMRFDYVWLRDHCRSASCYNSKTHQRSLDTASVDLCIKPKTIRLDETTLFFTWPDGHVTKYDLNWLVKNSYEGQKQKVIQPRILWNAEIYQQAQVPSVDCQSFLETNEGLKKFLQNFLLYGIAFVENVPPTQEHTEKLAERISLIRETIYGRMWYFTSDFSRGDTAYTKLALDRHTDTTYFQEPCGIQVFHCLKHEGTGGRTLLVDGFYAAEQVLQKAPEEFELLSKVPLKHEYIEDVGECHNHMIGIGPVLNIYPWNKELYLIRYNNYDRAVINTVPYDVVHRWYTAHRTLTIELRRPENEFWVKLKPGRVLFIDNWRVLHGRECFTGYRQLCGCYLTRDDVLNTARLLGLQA
UniProt Q96I45: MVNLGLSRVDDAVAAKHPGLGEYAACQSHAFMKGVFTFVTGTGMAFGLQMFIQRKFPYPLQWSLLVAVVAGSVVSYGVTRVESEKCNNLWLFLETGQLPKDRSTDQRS
UniProt Q15363: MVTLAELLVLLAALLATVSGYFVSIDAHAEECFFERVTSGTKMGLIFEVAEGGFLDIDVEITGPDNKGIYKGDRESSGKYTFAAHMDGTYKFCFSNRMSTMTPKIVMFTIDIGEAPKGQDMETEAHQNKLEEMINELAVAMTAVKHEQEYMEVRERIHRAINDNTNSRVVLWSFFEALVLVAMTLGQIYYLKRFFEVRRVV
UniProt O14763, whole entry, looked up: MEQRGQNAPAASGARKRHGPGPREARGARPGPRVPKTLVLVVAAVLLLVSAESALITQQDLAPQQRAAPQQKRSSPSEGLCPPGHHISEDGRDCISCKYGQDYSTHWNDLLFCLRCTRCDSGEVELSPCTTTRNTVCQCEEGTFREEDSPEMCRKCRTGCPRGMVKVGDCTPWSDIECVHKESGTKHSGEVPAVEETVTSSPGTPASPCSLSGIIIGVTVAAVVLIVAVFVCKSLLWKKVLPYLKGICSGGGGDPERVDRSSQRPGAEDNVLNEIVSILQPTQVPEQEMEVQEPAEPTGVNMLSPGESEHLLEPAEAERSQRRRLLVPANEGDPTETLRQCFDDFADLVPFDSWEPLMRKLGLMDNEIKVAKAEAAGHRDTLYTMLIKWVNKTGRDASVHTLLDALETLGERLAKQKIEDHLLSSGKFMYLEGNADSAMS
UniProt Q9P2C4: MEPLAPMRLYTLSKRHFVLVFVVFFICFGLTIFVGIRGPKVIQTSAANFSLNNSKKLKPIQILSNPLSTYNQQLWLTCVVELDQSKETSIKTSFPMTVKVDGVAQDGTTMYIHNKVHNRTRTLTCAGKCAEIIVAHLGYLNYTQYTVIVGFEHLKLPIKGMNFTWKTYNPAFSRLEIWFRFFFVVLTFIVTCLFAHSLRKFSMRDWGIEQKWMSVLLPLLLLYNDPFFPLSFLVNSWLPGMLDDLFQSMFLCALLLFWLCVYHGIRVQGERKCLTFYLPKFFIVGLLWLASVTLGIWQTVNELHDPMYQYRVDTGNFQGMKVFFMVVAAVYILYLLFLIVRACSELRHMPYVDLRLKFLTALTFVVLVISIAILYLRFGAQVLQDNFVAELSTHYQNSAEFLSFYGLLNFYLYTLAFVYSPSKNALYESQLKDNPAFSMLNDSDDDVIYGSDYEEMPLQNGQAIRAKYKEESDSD

Experiments:
Assay in all cases: log2 fold change, soluble protein after heating vs DMSO (PISA); higher = thermal stabilisation; K562 cells, 10 uM, 30 min; active = over 0.2 and 3.5 SD of the protein, either way, in both replicates (recomputed)
erlotinib = compound: C#Cc1cccc(Nc2ncnc3cc(OCCOC)c(OCCOC)cc23)c1 [erlotinib]
Method in brief: (§1)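 Soluble protein was defined as the supernatant after 21,000xg for 90 min. It came from K562 cells at 2×10^6 cells/mL given 10 μM compound for 30 min, heated in aliquots for 3 min across 48°C-58°C, pooled, and extracted in PBS with 0.5% NP-40 at 4°C, and was quantified by TMTpro 16plex LC-MS/MS with equalised channel sums. Thermal stability against control samples, from duplicates, is reported as log2 fold change.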

[1] = compound: C/C(=N\NC(=O)C1=CC(=CC=C1)S(=O)(=O)N2CCOCC2)/C3=C(C=CC(=C3)Cl)O
Method in brief: as §1

[2] = compound: C1=CC(=C(C=C1Cl)C2=NC3=NC=CN=C3C(=N2)NC4=CC=NC=C4)F
Method in brief: as §1

[3] = compound: C1=CC(=CC=C1C2=NC3=C(N2)C=C(C=C3)C(=O)N)OC4=CC=C(C=C4)Cl
Method in brief: as §1

[4] = compound: C1=CC2=C(C=CC(=C2)/C=C\3/C(=O)NC(=NCC4=CC=CS4)S3)N=C1
Method in brief: as §1

[5] = compound: C1=CC2=NC=CN=C2C=C1/C=C/3\C(=O)NC(=O)S3
Method in brief: as §1

[6] = compound: C1=CC=C(C=C1)C2=NC(=C(N2)C3=CC=NC=C3)C4=CC(=C(C=C4)Cl)O
Method in brief: as §1

[7] = compound: C1=CC=C2C(=C1)C3=NNC4=CC=CC(=C43)C2=O
Method in brief: as §1

[8] = compound: C1CCN(C1)C(=O)NC2=CC=CC(=C2)NC3=NC=C(C(=N3)NCCC4=CN=CN4)Br
Method in brief: as §1

[9] = compound: C1CN(CCC1(CC2=CC=C(C=C2)Cl)N)C3=NC=NC4=C3C=CN4
Method in brief: as §1

Measured: log2 fold change

TMA7 (UniProt Q9Y2S6)
inactive: erlotinib 0.02 | [1] -0.006 | [2] -0.044 | [3] 0.033 | [4] 0.024 | [5] 0 | [6] -0.072 | [7] -0.035 | [8] 0.068 | [9] 0.024

TMPPE (UniProt Q6ZT21)
inactive: erlotinib 0.042 | [1] 0.057 | [2] -0.021 | [3] -0.026 | [4] 0.037 | [5] 0.019 | [6] 0.006 | [7] -0.028 | [8] 0.058 | [9] -0.039

TMEM160 (UniProt Q9NX00)
inactive: erlotinib -0.074 | [1] -0.131 | [2] -0.056 | [3] 0.082 | [4] 0.031 | [5] 0.017 | [6] -0.037 | [7] 0.011 | [8] 0.119 | [9] 0.009

TMTC3 (UniProt Q6ZXV5)
inactive: erlotinib 0 | [1] 0 | [2] 0.007 | [3] 0.023 | [4] 0.042 | [5] 0.002 | [6] 0.001 | [7] -0.001 | [8] -0.064 | [9] -0.014

TMEM87B (UniProt Q96K49)
inactive: erlotinib 0.035 | [1] 0.059 | [2] -0.069 | [3] 0.013 | [4] 0.003 | [5] 0.055 | [6] 0.009 | [7] -0.143 | [8] -0.06 | [9] 0.047

TMEM126B (UniProt Q8IUX1)
inactive: erlotinib -0.025 | [1] 0.039 | [2] 0.112 | [3] 0.038 | [4] -0.004 | [5] 0.041 | [6] -0.001 | [7] 0.016 | [8] 0.022 | [9] 0.092

TLN1 (UniProt Q9Y490)
inactive: erlotinib -0.011 | [1] 0.063 | [2] 0.073 | [3] -0.018 | [4] -0.009 | [5] 0.018 | [6] 0.021 | [7] 0.028 | [8] -0.009 | [9] -0.021

TMPO (UniProt P42167)
inactive: erlotinib -0.023 | [1] -0.017 | [2] 0.016 | [3] 0.005 | [4] 0 | [5] 0.018 | [6] -0.025 | [7] -0.07 | [8] -0.034 | [9] 0.062

TMX1 (UniProt Q9H3N1)
inactive: erlotinib 0.01 | [1] 0.001 | [2] -0.001 | [3] -0.006 | [4] 0 | [5] 0.009 | [6] -0.05 | [7] -0.009 | [8] -0.004 | [9] 0.024

Retrieved one by one from above, 2 records:
TMPO (UniProt P42167)
inactive: erlotinib -0.023 | [1] -0.017 | [2] 0.016 | [3] 0.005 | [4] 0 | [5] 0.018 | [6] -0.025 | [7] -0.07 | [8] -0.034 | [9] 0.062

TLN1 (UniProt Q9Y490)
inactive: erlotinib -0.011 | [1] 0.063 | [2] 0.073 | [3] -0.018 | [4] -0.009 | [5] 0.018 | [6] 0.021 | [7] 0.028 | [8] -0.009 | [9] -0.021

(cont.)

TMEM214 (UniProt Q6NUQ4)
inactive: erlotinib -0.068 | [1] 0.016 | [2] -0.019 | [3] 0.001 | [4] 0.015 | [5] 0.017 | [6] -0.044 | [7] -0.025 | [8] 0.009 | [9] -0.088

TMPO isoform 2 (UniProt P42167)
inactive: erlotinib -0.009 | [1] -0.065 | [2] 0.023 | [3] 0.017 | [4] 0.078 | [5] 0.04 | [6] -0.11 | [7] -0.111 | [8] 0.061 | [9] 0.043

TMEM87A (UniProt Q8NBN3)
inactive: erlotinib 0.01 | [1] -0.012 | [2] 0.079 | [3] 0.036 | [4] 0.034 | [5] 0.049 | [6] -0.022 | [7] 0.011 | [8] 0.016 | [9] 0.099

TMPO (UniProt P42166)
inactive: erlotinib 0.112 | [1] -0.135 | [2] 0.072 | [3] 0 | [4] 0.17 | [5] 0.103 | [6] 0.06 | [7] -0.104 | [8] 0.068 | [9] 0.049

TMEM209 (UniProt Q96SK2)
inactive: erlotinib 0.016 | [1] 0.091 | [2] -0.031 | [3] 0.045 | [4] -0.013 | [5] -0.005 | [6] 0.017 | [7] -0.214 | [8] -0.07 | [9] 0.051

TMEM263 (UniProt Q8WUH6)
inactive: erlotinib 0.093 | [1] 0.024 | [2] 0.024 | [3] -0.012 | [4] 0.058 | [5] -0.013 | [6] 0.02 | [7] -0.101 | [8] 0.036 | [9] 0.022

TMEM65 (UniProt Q6PI78)
inactive: erlotinib -0.022 | [1] 0.014 | [2] 0.038 | [3] 0.023 | [4] -0.031 | [5] 0.127 | [6] -0.042 | [7] -0.067 | [8] -0.098 | [9] 0.045

TMBIM6 isoform 2 (UniProt P55061)
inactive: erlotinib -0.019 | [1] 0.029 | [2] 0.051 | [3] -0.062 | [4] 0.067 | [5] 0.076 | [6] 0.019 | [7] -0.07 | [8] 0.026 | [9] -0.01

TMEM230 isoform 2 (UniProt Q96A57)
inactive: erlotinib 0.089 | [1] 0.038 | [2] 0.045 | [3] -0.019 | [4] -0.037 | [5] 0.141 | [6] 0.035 | [7] 0.009 | [8] 0.019 | [9] 0.045

TMEM38B (UniProt Q9NVV0)
inactive: erlotinib -0.037 | [1] -0.029 | [2] 0.039 | [3] 0.039 | [4] 0.034 | [5] 0 | [6] 0.037 | [7] -0.055 | [8] 0.002 | [9] 0.01

TMEM164 (UniProt Q5U3C3)
inactive: erlotinib -0.103 | [1] 0.178 | [2] 0.041 | [3] 0.002 | [4] 0.129 | [5] 0.078 | [7] 0.017 | [8] -0.042 | [9] 0.021

TMEM106B (UniProt Q9NUM4)
inactive: erlotinib 0.007 | [1] 0.028 | [2] -0.047 | [3] 0.031 | [4] 0.051 | [5] -0.002 | [7] 0.003 | [8] -0.064 | [9] 0.15

TMEM43 (UniProt Q9BTV4)
inactive: erlotinib -0.02 | [1] -0.049 | [2] -0.042 | [3] -0.002 | [4] -0.015 | [5] 0.01 | [6] 0.014 | [7] -0.026 | [8] 0.016 | [9] 0.022

TMEM267 (UniProt Q0VDI3)
inactive: erlotinib -0.054 | [1] -0.151 | [3] 0.034 | [4] 0.198 | [5] 0.067 | [6] 0.093 | [7] -0.04 | [8] 0.365 | [9] -0.217

TMEM161B (UniProt Q8NDZ6)
inactive: erlotinib 0.037 | [1] -0.074 | [2] 0.013 | [3] -0.021 | [4] -0.054 | [5] 0.018 | [6] 0.159 | [7] -0.026 | [8] -0.053 | [9] -0.03

TMLHE isoform 8 (UniProt Q9NVH6)
inactive: erlotinib 0.033 | [1] -0.044 | [2] -0.064 | [3] 0.001 | [4] -0.032 | [5] 0.074 | [6] 0.035 | [7] -0.079 | [8] -0.009 | [9] 0.084

TMEM141 (UniProt Q96I45)
inactive: erlotinib 0.072 | [1] 0.027 | [3] -0.026 | [4] 0.022 | [5] 0.018 | [7] -0.018 | [8] 0.023 | [9] 0.033

TM2D3 (UniProt Q9BRN9)
inactive: erlotinib -0.013 | [1] 0.04 | [2] 0.053 | [3] -0.049 | [4] -0.002 | [5] -0.005 | [6] -0.042 | [7] 0 | [8] -0.105 | [9] -0.071

TMED2 (UniProt Q15363)
inactive: erlotinib 0.024 | [1] -0.02 | [2] 0.057 | [3] -0.007 | [4] -0.007 | [5] 0.021 | [6] 0.073 | [7] -0.006 | [8] -0.015 | [9] 0.025

TNFRSF10B (UniProt O14763)
inactive: erlotinib 0.009 | [1] 0.011 | [2] 0.017 | [3] 0.026 | [4] 0.014 | [5] 0.071 | [7] 0.031 | [8] 0.007 | [9] 0.156

TMEM181 (UniProt Q9P2C4)
inactive: erlotinib -0.027 | [1] -0.03 | [3] 0.005 | [4] -0.321 | [5] 0.016 | [6] -0.053 | [7] -0.048 | [8] -0.016 | [9] 0.111
